Laboratory results: PubChem BioAssay AID1259308 (NCATS, 2017)
Test: 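Genes whose loss raises luciferase production in HEK293 cells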 (primary screen). Cell system: human HEK293 embryonic kidney cells stably expressing firefly luciferase (HEK-CMV-Luc2-Hygro). Reagents: single siRNA against human genes, 0.8 pmol siRNA per well. Timing: 72 h. Detection: 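Luciferase light (ONE-Glo) measured on one replicate plate set and viability (CellTiter-Glo) on the other, scaled to a negative control siRNA, with robust z-scores and luciferase per cell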. Scale: total luciferase, z-score and total luciferase, % of control: higher = more reporter protein produced; luciferase per cell, z-score: higher = more reporter output per viable cell. Rule for the call: 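An siRNA counts as active if its total luciferase robust z-score exceeds 3; genes with two or more such siRNAs out of three were retested with fresh siRNAs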. Calls: active = raised luciferase; inactive = no rise.
The whole screen tested about 59,000 reagents; shown is an unselected part. In the full data, about 1,510 (2.6%) got an active call. 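Calls use total luciferase alone and ignore viability, so some active siRNAs may act by altering cell number.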 Reagents against one gene are numbered here. Not all columns of the deposit are shown.

no.	gene	reagent	total luciferase, z-score	total luciferase, % of control	luciferase per cell, z-score	Call
1	ARHGEF40 (GeneID 55701)	1	1.57	113	1.37	inactive
2	ARHGEF40 (GeneID 55701)	2	-1.22	57.6	-1.21	inactive
3	ARHGEF40 (GeneID 55701)	3	0.535	92.5	-0.22	inactive
4	GPR137 (GeneID 56834)	1	4.05	162	3.3	active
5	GPR137 (GeneID 56834)	2	0.0317	82.5	-0.0675	inactive
6	GPR137 (GeneID 56834)	3	1.5	112	0.883	inactive
7	DNPH1 (GeneID 10591)	1	0.693	95.7	-0.00271	inactive
8	DNPH1 (GeneID 10591)	2	0.643	94.7	0.315	inactive
9	DNPH1 (GeneID 10591)	3	-0.286	76.2	-0.226	inactive
10	GET1 (GeneID 7485)	1	-0.284	76.2	-0.0657	inactive
11	GET1 (GeneID 7485)	2	-1.7	48.1	-1.81	inactive
12	GET1 (GeneID 7485)	3	0.552	92.9	0.019	inactive

The list goes on, starting with the last 3 of the part before.
no.	gene	reagent	total luciferase, z-score	total luciferase, % of control	luciferase per cell, z-score	Call
10	GET1 (GeneID 7485)	1	-0.284	76.2	-0.0657	inactive
11	GET1 (GeneID 7485)	2	-1.7	48.1	-1.81	inactive
12	GET1 (GeneID 7485)	3	0.552	92.9	0.019	inactive
13	GCM1 (GeneID 8521)	1	1.92	120	1.13	inactive
14	GCM1 (GeneID 8521)	2	-0.735	67.3	-0.868	inactive
15	GCM1 (GeneID 8521)	3	-0.759	66.8	-0.852	inactive
16	CCL8 (GeneID 6355)	1	-0.958	62.8	-1.12	inactive
17	CCL8 (GeneID 6355)	2	-0.911	63.8	-0.362	inactive
18	CCL8 (GeneID 6355)	3	0.772	97.2	1.27	inactive
19	SLC35A3 (GeneID 23443)	1	-0.597	70	-0.875	inactive
20	SLC35A3 (GeneID 23443)	2	0.0826	83.5	0.0367	inactive
21	SLC35A3 (GeneID 23443)	3	0.502	91.9	0.396	inactive
22	SLC6A5 (GeneID 9152)	1	0.156	85	0.358	inactive
23	SLC6A5 (GeneID 9152)	2	1.95	121	0.631	inactive
24	SLC6A5 (GeneID 9152)	3	-2.99	22.5	-2.88	inactive
